Assay results: the supplement of paper PMC11438910
Changes are numbered by the printed parent chain. Some of the results follow. Most of these values are background signal.

Tests used:
Experiment in all cases: fluorescence intensity of antibody binding to polysaccharide-coupled beads; higher = stronger binding
[1] = biological target: pneumococcal polysaccharide Pn9N
[2] = biological target: pneumococcal polysaccharide Pn9V
[3] = biological target: pneumococcal polysaccharide C-Poly-1
[4] = biological target: pneumococcal polysaccharide C-Poly-2
[5] = biological target: pneumococcal polysaccharide Pn1
[6] = biological target: pneumococcal polysaccharide Pn10A
[7] = biological target: pneumococcal polysaccharide Pn10B
[8] = biological target: pneumococcal polysaccharide Pn10C
[9] = biological target: pneumococcal polysaccharide Pn10F
[10] = biological target: pneumococcal polysaccharide Pn11A
[11] = biological target: pneumococcal polysaccharide Pn11B
[12] = biological target: pneumococcal polysaccharide Pn11C
[13] = biological target: pneumococcal polysaccharide Pn11D
[14] = biological target: pneumococcal polysaccharide Pn11F
[15] = biological target: pneumococcal polysaccharide Pn12A
[16] = biological target: pneumococcal polysaccharide Pn12B
[17] = biological target: pneumococcal polysaccharide Pn12F
[18] = biological target: pneumococcal polysaccharide Pn13
[19] = biological target: pneumococcal polysaccharide Pn14
[20] = biological target: pneumococcal polysaccharide Pn15A
[21] = biological target: pneumococcal polysaccharide Pn15B
[22] = antibody concentration 2337.65 ng/mL
[23] = antibody concentration 12500 ng/mL
[24] = antibody concentration 0.1 ng/mL
[25] = antibody concentration 0.534724 ng/mL
[26] = antibody concentration 2.8593 ng/mL
[27] = antibody concentration 15.2894 ng/mL
[28] = antibody concentration 81.7561 ng/mL
[29] = antibody concentration 437.17 ng/mL

B1: 4-99.2 (protein)
chain 1: QVQLQESGPGLVKPSETLSLTCAVSGYSIRSAYEWGWIRQPPGKGLEYIGYISGESGNTYYSPSLKSRVTISRDTSKNQFSLRLSSVTAADSAVYYCARRGQLIGFDFWGQGVLVTVSS
chain 2: QAAPTQPPSVSGSPGQSVTISCTGTSSDIGYYNAVSWYQHLPGKAPKLMIYEVSKRPSGVSDRFSGSKSGNTASLTISGLQAEDEADYYCSSYAGSNTYIFGAGTRLTVL
- fluorescence intensity [1, 22]: 18 MFI
- fluorescence intensity [1, 23]: 28 MFI
- fluorescence intensity [2, 24]: 14 MFI
- fluorescence intensity [2, 25]: 13 MFI
- fluorescence intensity [2, 26]: 14 MFI
- fluorescence intensity [2, 27]: 14 MFI
- fluorescence intensity [2, 28]: 15 MFI
- fluorescence intensity [2, 29]: 15 MFI
- fluorescence intensity [2, 22]: 15.2 MFI
- fluorescence intensity [2, 23]: 22 MFI

B2: 4-99.3 (protein)
chain 1: QVQLQESGPGLVKPSETLSLTCAVSGYSISSGYYWGWIRQPPGKGLEYIGYISGSWGKSYYKPSLKSRVTISKDTSKNQFSLTLSSVTAADTAVYYCARRLEYVGFDVWGPGVLVTVSS
chain 2: B1 chain 2 with H40Q, L41H, A103S
- fluorescence intensity [3, 24]: 23.5 MFI
- fluorescence intensity [3, 25]: 27 MFI
- fluorescence intensity [3, 26]: 25 MFI
- fluorescence intensity [3, 27]: 26.5 MFI
- fluorescence intensity [3, 28]: 27 MFI
- fluorescence intensity [3, 29]: 30.8 MFI
- fluorescence intensity [3, 22]: 63.5 MFI
- fluorescence intensity [3, 23]: 502 MFI
- fluorescence intensity [4, 24]: 20.2 MFI
- fluorescence intensity [4, 25]: 19.5 MFI
- fluorescence intensity [4, 26]: 20 MFI
- fluorescence intensity [4, 27]: 20 MFI
- fluorescence intensity [4, 28]: 21 MFI
- fluorescence intensity [4, 29]: 25 MFI
- fluorescence intensity [4, 22]: 51.8 MFI
- fluorescence intensity [4, 23]: 404 MFI
- fluorescence intensity [5, 24]: 13.5 MFI
- fluorescence intensity [5, 25]: 13.5 MFI
- fluorescence intensity [5, 26]: 13 MFI
- fluorescence intensity [5, 27]: 13 MFI
- fluorescence intensity [5, 28]: 13.5 MFI
- fluorescence intensity [5, 29]: 15.5 MFI
- fluorescence intensity [5, 22]: 20.5 MFI
- fluorescence intensity [5, 23]: 84.5 MFI
- fluorescence intensity [6, 24]: 25 MFI
- fluorescence intensity [6, 25]: 26 MFI
- fluorescence intensity [6, 26]: 25 MFI
- fluorescence intensity [6, 27]: 25.5 MFI
- fluorescence intensity [6, 28]: 26.5 MFI
- fluorescence intensity [6, 29]: 26 MFI
- fluorescence intensity [6, 22]: 29.8 MFI
- fluorescence intensity [6, 23]: 79.5 MFI
- fluorescence intensity [7, 24]: 24.2 MFI
- fluorescence intensity [7, 25]: 23 MFI
- fluorescence intensity [7, 26]: 23.8 MFI
- fluorescence intensity [7, 27]: 22 MFI
- fluorescence intensity [7, 28]: 22.8 MFI
- fluorescence intensity [7, 29]: 25.5 MFI
- fluorescence intensity [7, 22]: 26 MFI
- fluorescence intensity [7, 23]: 47.8 MFI
- fluorescence intensity [8, 24]: 15.5 MFI
- fluorescence intensity [8, 25]: 16.5 MFI
- fluorescence intensity [8, 26]: 15.5 MFI
- fluorescence intensity [8, 27]: 15.5 MFI
- fluorescence intensity [8, 28]: 17.2 MFI
- fluorescence intensity [8, 29]: 15.5 MFI
- fluorescence intensity [8, 22]: 20 MFI
- fluorescence intensity [8, 23]: 35.5 MFI
- fluorescence intensity [9, 24]: 20 MFI
- fluorescence intensity [9, 25]: 19 MFI
- fluorescence intensity [9, 26]: 20.5 MFI
- fluorescence intensity [9, 27]: 19.5 MFI
- fluorescence intensity [9, 28]: 19 MFI
- fluorescence intensity [9, 29]: 18.5 MFI
- fluorescence intensity [9, 22]: 21.5 MFI
- fluorescence intensity [9, 23]: 28.2 MFI
- fluorescence intensity [10, 24]: 27 MFI
- fluorescence intensity [10, 25]: 29.2 MFI
- fluorescence intensity [10, 26]: 29.8 MFI
- fluorescence intensity [10, 27]: 27.5 MFI
- fluorescence intensity [10, 28]: 29.8 MFI
- fluorescence intensity [10, 29]: 31.5 MFI
- fluorescence intensity [10, 22]: 37.8 MFI
- fluorescence intensity [10, 23]: 72.8 MFI
- fluorescence intensity [11, 24]: 22.5 MFI
- fluorescence intensity [11, 25]: 26 MFI
- fluorescence intensity [11, 26]: 25.5 MFI
- fluorescence intensity [11, 27]: 25 MFI
- fluorescence intensity [11, 28]: 25.2 MFI
- fluorescence intensity [11, 29]: 28.5 MFI
- fluorescence intensity [11, 22]: 35.8 MFI
- fluorescence intensity [11, 23]: 41.8 MFI
- fluorescence intensity [12, 24]: 23.5 MFI
- fluorescence intensity [12, 25]: 19.5 MFI
- fluorescence intensity [12, 26]: 21.5 MFI
- fluorescence intensity [12, 27]: 21.5 MFI
- fluorescence intensity [12, 28]: 21.5 MFI
- fluorescence intensity [12, 29]: 24.5 MFI
- fluorescence intensity [12, 22]: 63 MFI
- fluorescence intensity [12, 23]: 440 MFI
- fluorescence intensity [13, 24]: 23 MFI
- fluorescence intensity [13, 25]: 21.5 MFI
- fluorescence intensity [13, 26]: 22 MFI
- fluorescence intensity [13, 27]: 23 MFI
- fluorescence intensity [13, 28]: 22 MFI
- fluorescence intensity [13, 29]: 23.5 MFI
- fluorescence intensity [13, 22]: 42.2 MFI
- fluorescence intensity [13, 23]: 193 MFI
- fluorescence intensity [14, 24]: 14.2 MFI
- fluorescence intensity [14, 25]: 13.5 MFI
- fluorescence intensity [14, 26]: 12.5 MFI
- fluorescence intensity [14, 27]: 14.5 MFI
- fluorescence intensity [14, 28]: 13.8 MFI
- fluorescence intensity [14, 29]: 16 MFI
- fluorescence intensity [14, 22]: 18.5 MFI
- fluorescence intensity [14, 23]: 35.5 MFI
- fluorescence intensity [15, 24]: 15 MFI
- fluorescence intensity [15, 25]: 14.5 MFI
- fluorescence intensity [15, 26]: 15 MFI
- fluorescence intensity [15, 27]: 14.5 MFI
- fluorescence intensity [15, 28]: 14.5 MFI
- fluorescence intensity [15, 29]: 17.5 MFI
- fluorescence intensity [15, 22]: 23.5 MFI
- fluorescence intensity [15, 23]: 61 MFI
- fluorescence intensity [16, 24]: 15 MFI
- fluorescence intensity [16, 25]: 15 MFI
- fluorescence intensity [16, 26]: 15.5 MFI
- fluorescence intensity [16, 27]: 16 MFI
- fluorescence intensity [16, 28]: 14.5 MFI
- fluorescence intensity [16, 29]: 16 MFI
- fluorescence intensity [16, 22]: 24 MFI
- fluorescence intensity [16, 23]: 66.5 MFI
- fluorescence intensity [17, 24]: 16.5 MFI
- fluorescence intensity [17, 25]: 18.2 MFI
- fluorescence intensity [17, 26]: 17.5 MFI
- fluorescence intensity [17, 27]: 18 MFI
- fluorescence intensity [17, 28]: 19.2 MFI
- fluorescence intensity [17, 29]: 20 MFI
- fluorescence intensity [17, 22]: 25.5 MFI
- fluorescence intensity [17, 23]: 112 MFI
- fluorescence intensity [18, 24]: 19 MFI
- fluorescence intensity [18, 25]: 18 MFI
- fluorescence intensity [18, 26]: 17 MFI
- fluorescence intensity [18, 27]: 18.5 MFI
- fluorescence intensity [18, 28]: 18.5 MFI
- fluorescence intensity [18, 29]: 18.5 MFI
- fluorescence intensity [18, 22]: 25 MFI
- fluorescence intensity [18, 23]: 69.8 MFI
- fluorescence intensity [19, 24]: 13 MFI
- fluorescence intensity [19, 25]: 14.5 MFI
- fluorescence intensity [19, 26]: 13.5 MFI
- fluorescence intensity [19, 27]: 13.5 MFI
- fluorescence intensity [19, 28]: 16.5 MFI
- fluorescence intensity [19, 29]: 20.5 MFI
- fluorescence intensity [19, 22]: 40.5 MFI
- fluorescence intensity [19, 23]: 390 MFI
- fluorescence intensity [20, 24]: 12 MFI
- fluorescence intensity [20, 25]: 11.8 MFI
- fluorescence intensity [20, 26]: 12 MFI
- fluorescence intensity [20, 27]: 13.2 MFI
- fluorescence intensity [20, 28]: 13.5 MFI
- fluorescence intensity [20, 29]: 12 MFI
- fluorescence intensity [20, 22]: 15 MFI
- fluorescence intensity [20, 23]: 23.2 MFI
- fluorescence intensity [21, 24]: 17.5 MFI
- fluorescence intensity [21, 25]: 17 MFI
- fluorescence intensity [21, 26]: 18 MFI
- fluorescence intensity [21, 27]: 18.5 MFI
- fluorescence intensity [21, 28]: 20 MFI
- fluorescence intensity [21, 29]: 22.5 MFI
